# Record: PubChem BioAssay AID1159578 (Peter MacCallum Cancer Centre, 2015)
# Assay: 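Knock-downs that alter how fast lymphatic endothelial cells migrate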 (primary screen)
# Cells: human lymphatic endothelial cells
# Reagent: siRNA pool against human genes, 40 nM
# Time to read-out: 48 h after transfection
# Read-out: 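High-content imaging of dye-stained cells in a scratch assay measures filled wound area and nuclei per well; duplicate means given as ratio to mock and robust z-score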
# Direction: migration robust z-score: higher = faster migration into the scratch; migration relative to mock: higher = more scratch area covered than mock; nuclei per well: higher = more cells in the well
# Hit rule: 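Pools averaging fewer than 3300 nuclei are never called; remaining pools count as changed when migration robust z lies outside -2 to 2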
# Meaning of the calls: active = migration changed; inactive = no migration change, or too few cells
# Here is an unselected part of about 18,000 deposited reagents. About 1,030 of them (5.7%) were called active. 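Inactive calls also include pools with fewer than 3300 nuclei, whose migration was not assessed.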 Raw values vary from plate to plate and are shown uncorrected.
gene symbol,migration robust z-score,migration class with cell-count check,migration relative to mock,"nuclei per well, duplicate mean",call
PYGB (glycogen phosphorylase B),0.36,migration z between -2 and 2; enough cells,0.88,6725,inactive
TTC31 (tetratricopeptide repeat domain 31),-0.44,migration z between -2 and 2; enough cells,0.77,6216,inactive
TMEM81 (transmembrane protein 81),-0.27,migration z between -2 and 2; enough cells,0.82,6816,inactive
MYG1 (MYG1 exonuclease),-1.32,migration z between -2 and 2; enough cells,0.54,5256,inactive
ACOT11 (acyl-CoA thioesterase 11),0.06,migration z between -2 and 2; enough cells,0.82,5820,inactive
CGB1 (chorionic gonadotropin subunit beta 1),-0.96,migration z between -2 and 2; enough cells,0.64,5898,inactive
KRTAP8-1 (keratin associated protein 8-1),-0.21,migration z between -2 and 2; enough cells,0.83,5097,inactive
HTN3 (histatin 3),-0.88,migration z between -2 and 2; enough cells,0.66,4535,inactive
SENP2 (SUMO specific peptidase 2),0.02,migration z between -2 and 2; enough cells,0.81,5443,inactive
"NPLOC4 (NPL4 homolog, ubiquitin recognition factor)",-0.4,migration z between -2 and 2; enough cells,0.78,6754,inactive
DMAC2L (distal membrane arm assembly component 2 like),0.66,migration z between -2 and 2; enough cells,1.06,5610,inactive
ZNF540 (zinc finger protein 540),-0.24,migration z between -2 and 2; enough cells,0.82,6386,inactive
ZNF8 (zinc finger protein 8),1.47,migration z between -2 and 2; enough cells,1.27,5078,inactive
FAT1 (FAT atypical cadherin 1),-0.32,migration z between -2 and 2; enough cells,0.8,6149,inactive
BLOC1S1 (biogenesis of lysosomal organelles complex 1 subunit 1),-0.77,migration z between -2 and 2; enough cells,0.69,4679,inactive
ACTR5 (actin related protein 5),1.49,migration z between -2 and 2; enough cells,1.27,5356,inactive
MAP1LC3B (microtubule associated protein 1 light chain 3 beta),1.15,migration z between -2 and 2; enough cells,1.18,5058,inactive
DDX31 (DEAD-box helicase 31),0.78,migration z between -2 and 2; enough cells,0.96,5198,inactive
PPDPF,-1.19,migration z between -2 and 2; enough cells,0.58,5340,inactive
PAK4 (p21 (RAC1) activated kinase 4),-1.12,migration z between -2 and 2; enough cells,0.59,3670,inactive
PHKG2 (phosphorylase kinase catalytic subunit gamma 2),-2.41,migration z below -2; enough cells,0.34,4191,active
OR8B3 (olfactory receptor family 8 subfamily B member 3),-0.05,migration z between -2 and 2; enough cells,0.88,5920,inactive
DCP2 (decapping mRNA 2),0.73,migration z between -2 and 2; enough cells,1.08,6562,inactive

Part of the list above, showing only “migration class with cell-count check”.
FAT1 (FAT atypical cadherin 1)	migration z between -2 and 2; enough cells
BLOC1S1 (biogenesis of lysosomal organelles complex 1 subunit 1)	migration z between -2 and 2; enough cells
